In assay [1] the target is T1, retinoblastoma protein (Rb) (human (endogenous in 293FT)) (UniProt P06400).
T1 sequence: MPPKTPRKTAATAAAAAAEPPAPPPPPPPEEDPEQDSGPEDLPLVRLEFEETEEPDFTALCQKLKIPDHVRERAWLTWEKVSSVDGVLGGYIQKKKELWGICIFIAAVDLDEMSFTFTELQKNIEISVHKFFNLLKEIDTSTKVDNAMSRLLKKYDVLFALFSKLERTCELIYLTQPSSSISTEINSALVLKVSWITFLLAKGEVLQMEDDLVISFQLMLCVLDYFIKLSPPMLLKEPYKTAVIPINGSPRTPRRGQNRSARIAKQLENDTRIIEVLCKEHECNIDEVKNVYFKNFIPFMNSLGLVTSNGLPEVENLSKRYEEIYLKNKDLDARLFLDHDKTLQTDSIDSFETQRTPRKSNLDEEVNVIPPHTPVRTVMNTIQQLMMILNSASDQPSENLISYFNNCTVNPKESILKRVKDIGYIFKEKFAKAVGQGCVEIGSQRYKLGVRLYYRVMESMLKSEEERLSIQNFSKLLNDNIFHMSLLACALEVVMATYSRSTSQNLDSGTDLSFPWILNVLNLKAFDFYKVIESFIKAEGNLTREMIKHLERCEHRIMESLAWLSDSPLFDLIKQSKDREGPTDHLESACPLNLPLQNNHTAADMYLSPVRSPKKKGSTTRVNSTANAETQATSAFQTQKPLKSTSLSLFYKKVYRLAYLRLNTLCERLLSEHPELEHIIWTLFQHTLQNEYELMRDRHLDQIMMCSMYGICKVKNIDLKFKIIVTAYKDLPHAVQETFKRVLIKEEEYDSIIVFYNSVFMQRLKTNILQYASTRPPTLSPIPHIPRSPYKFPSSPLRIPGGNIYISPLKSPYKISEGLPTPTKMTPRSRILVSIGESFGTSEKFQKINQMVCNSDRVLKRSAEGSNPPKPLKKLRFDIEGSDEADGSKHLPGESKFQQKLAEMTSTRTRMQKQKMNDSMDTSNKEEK
Kind of assay: co-IP; 3×-FLAG-ΔNLS-DEDD overexpressed in 293FT cells; cells treated with 1 ng/mL EGF and 1 µM MG-132 for 6 h; M2 lysis buffer (50 mM Tris-HCl pH 7.4, 150 mM NaCl, 1% Triton X-100, 0.5 mM EDTA); lysate incubated with Rb (4H1) antibody overnight, protein A/G agarose 2 h at 4 °C.

Chains of the proteins cited; added tags and fusions are not shown.
UniProt P11142: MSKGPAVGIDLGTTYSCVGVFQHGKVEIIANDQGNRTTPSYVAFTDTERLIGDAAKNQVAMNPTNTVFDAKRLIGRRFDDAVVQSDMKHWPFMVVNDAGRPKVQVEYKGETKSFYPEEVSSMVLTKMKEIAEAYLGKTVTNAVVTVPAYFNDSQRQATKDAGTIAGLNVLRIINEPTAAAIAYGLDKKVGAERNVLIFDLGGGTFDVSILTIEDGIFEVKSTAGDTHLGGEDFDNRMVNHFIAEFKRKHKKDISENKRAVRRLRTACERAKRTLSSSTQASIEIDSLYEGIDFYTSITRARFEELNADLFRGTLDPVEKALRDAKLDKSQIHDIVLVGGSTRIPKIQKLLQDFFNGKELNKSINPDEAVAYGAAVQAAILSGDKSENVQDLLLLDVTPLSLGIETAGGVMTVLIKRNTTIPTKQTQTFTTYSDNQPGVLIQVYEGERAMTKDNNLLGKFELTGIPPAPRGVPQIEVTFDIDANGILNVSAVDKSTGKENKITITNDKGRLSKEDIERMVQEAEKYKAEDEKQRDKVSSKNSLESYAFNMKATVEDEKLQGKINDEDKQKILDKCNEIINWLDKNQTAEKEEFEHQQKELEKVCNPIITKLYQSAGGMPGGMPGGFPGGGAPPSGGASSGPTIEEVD

The target of assay [2] is 3×-FLAG-ΔNLS-DEDD (cytosolic Death Effector Domain-containing DNA-binding protein with substitution mutations in all three nuclear localization sequences) (human) (UniProt O75618). In words: co-IP; 3×-FLAG-DEL-NLS-DEDD plasmid overexpressed in 293FT cells; also in TNBC cells (Supplementary Fig. 6H).

Results are given in words; binding and its absence hold for the method and conditions named. Binding seen in cells or lysates may run through a third protein. Some results given as binding are weak or reduced against the parent protein; the word gives no strength.

Consider “3×-FLAG-ΔNLS-DEDD (cytosolic Death Effector Domain-containing DNA-binding protein with substitution mutations in all three nuclear localization sequences) (from UniProt O75618-1 1-318)”, for which the binding result in assay [1] is “binds”.
Turning to “heat-shock cognate 71 kDa protein (HSC70) (from UniProt P11142 1-646)”, in assay [2], the binding entry is given as “binds”.

The values are drawn from paper PMC6599020.
